In patent WO2013078377A1:
Results are given in words; binding and its absence hold for the method and conditions named. Some entries that bind do so weakly or less than the wild type.

By UniProt entry, the sequences of proteins in these tests, tags left out. Where a name states a change or a piece, a line headed by the entry shows the natural chain unless it says otherwise. Chains listed by the source or under a name are the forms on record and can include a tag or linker.
cynomolgus monkey CD98 on a cell line expressing it (I7GH21, form named): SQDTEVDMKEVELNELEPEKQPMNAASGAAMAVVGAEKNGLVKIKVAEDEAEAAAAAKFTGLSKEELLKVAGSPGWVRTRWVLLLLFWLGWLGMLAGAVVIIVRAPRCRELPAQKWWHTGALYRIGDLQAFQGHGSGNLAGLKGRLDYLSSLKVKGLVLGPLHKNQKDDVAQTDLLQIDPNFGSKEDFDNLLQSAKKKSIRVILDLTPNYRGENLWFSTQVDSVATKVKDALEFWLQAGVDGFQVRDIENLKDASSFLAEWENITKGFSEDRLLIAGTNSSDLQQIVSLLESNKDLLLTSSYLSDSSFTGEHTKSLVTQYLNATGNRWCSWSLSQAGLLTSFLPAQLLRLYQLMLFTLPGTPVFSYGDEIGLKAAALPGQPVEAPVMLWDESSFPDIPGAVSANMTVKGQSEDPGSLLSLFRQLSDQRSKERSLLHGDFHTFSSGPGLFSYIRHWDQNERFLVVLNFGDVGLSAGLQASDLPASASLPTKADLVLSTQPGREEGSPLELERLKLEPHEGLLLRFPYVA

Target: cynomolgus monkey CD98 on a cell line expressing it (cynomolgus monkey) (UniProt I7GH21)
Assay: FACS on a cell line expressing cynomolgus monkey CD98

B1: chimeric anti-CD98 monoclonal antibody 18-2A 7.1 (antibody, V domains shown)
VH: QVQLQQSGAELVRPGTSVKVSCKASGNAFTNYLIEWIKQRPGQGLEWIGVINPGSGITNYNEKFKGKATLTADKSSNTAYMQLSSLSSDDSAVYFCSGSANWFAYWGQGTLVTVSA
VL: DIVMSQSPSSLAVSVGEKVTMSCKSSQSLLYSSNQKNYLAWYQQKPGQSPKLLIYWASTRDSGVPDRFTGSGSGTDFTLTISSVKAEDLAVYYCQRYYGYPWTFGGGTKLEIK
B1 was tested, and the binding was “binds”.
